Source: PubChem BioAssay AID248 (DTP/NCI, 2004)
The list does not hold the whole screen: it gathers tests that were run many times, whatever their T/C, doses with no T/C, and many T/C values between a quarter and a half above the control. Further doses and runs are listed elsewhere. T/C is the treated group as % of the vehicle group. Some entries give survivors of the animals treated and no T/C: the source holds a T/C of zero for them, seemingly a mark for toxic or unscored doses. Some survivor counts are full or nearly so, which does not show that the dose was tolerated: survival well below the control is almost never listed, so the zero probably covers shortened survival too. Counts of survivors are from the toxicity check (mostly the fifth day) where no day follows; animals may have died later. Schedules are NCI's codes, read here as Q, the interval in days (D) or hours (H), X, the number of doses. Some molecules as drawn cover several salts, stereoisomers or complexes of the source; a dose is that of the sample tested. Additions like (4×) stand for listed records that agree.

Test system: L1210 leukemia ip in BDF1 mice, survival T/C
Test: NCI In Vivo Anticancer Drug Screen. Data for tumor model L1210 Leukemia (intraperitoneal) in B6D2F1 (BDF1) mice
Settings: T/C endpoint: mean survival time, higher T/C = longer survival
[1] = dose: 200.0 mg/kg/injection, schedule: Q04DX003 (ip), vehicle: Klucel (hydroxypropylcellulose) (HPC)
[2] = dose: 400.0 mg/kg/injection, schedule: Q04DX003 (ip), vehicle: Klucel (hydroxypropylcellulose) (HPC)
[3] = dose: 400.0 mg/kg/injection, schedule: Q04DX002 (ip), vehicle: saline with Tween-80
[4] = dose: 100.0 mg/kg/injection, schedule: Q04DX003 (ip), vehicle: saline
[5] = dose: 200.0 mg/kg/injection, schedule: Q04DX003 (ip), vehicle: saline
[6] = dose: 400.0 mg/kg/injection, schedule: Q04DX003 (ip), vehicle: saline
[7] = dose: 100.0 mg/kg/injection, schedule: Q01DX001 (ip), vehicle: saline
[8] = dose: 400.0 mg/kg/injection, schedule: Q04DX003 (ip), vehicle: saline with Tween-80
[9] = dose: 400.0 mg/kg/injection, schedule: Q01DX009 (ip), vehicle: saline with Tween-80

NC(N)=NC(N)=NCCCCc1ccccc1
survivor count (dose: 100.0 mg/kg/injection, schedule: Q04DX003 (ip), vehicle: Klucel (hydroxypropylcellulose) (HPC)): 0 of 3
survivor count [1]: 1 of 3
survivor count [2]: 0 of 3

Cc1ccnc2c([N+](=O)[O-])cccc12
survivor count [3]: 0 of 3

Cc1nnc(NN)nc1C
survivor count (dose: 25.0 mg/kg/injection, schedule: Q01DX009 (ip), vehicle: saline with Tween-80): 0 of 6
survivor count (dose: 50.0 mg/kg/injection, schedule: Q01DX001 (ip), vehicle: saline with Tween-80): 2 of 6
survivor count (dose: 100.0 mg/kg/injection, schedule: Q01DX001 (ip), vehicle: saline with Tween-80): 0 of 6
survivor count (dose: 200.0 mg/kg/injection, schedule: Q01DX001 (ip), vehicle: saline with Tween-80): 0 of 6
survivor count (dose: 400.0 mg/kg/injection, schedule: Q01DX001 (ip), vehicle: saline with Tween-80): 0 of 6

C1CCC2CC(NC3=NCCO3)CCC2C1 (centres undefined)
survivor count (dose: 1.56 mg/kg/injection, schedule: Q01DX009 (ip), vehicle: Klucel (hydroxypropylcellulose) (HPC)): 0 of 6
survivor count (dose: 3.12 mg/kg/injection, schedule: Q01DX009 (ip), vehicle: Klucel (hydroxypropylcellulose) (HPC)): 0 of 6
survivor count (dose: 3.13 mg/kg/injection, schedule: Q01DX009 (ip), vehicle: Klucel (hydroxypropylcellulose) (HPC)): 1 of 6
survivor count (dose: 6.25 mg/kg/injection, schedule: Q01DX009 (ip), vehicle: Klucel (hydroxypropylcellulose) (HPC)): 3 of 6
survivor count (dose: 12.5 mg/kg/injection, schedule: Q01DX009 (ip), vehicle: Klucel (hydroxypropylcellulose) (HPC)): 0 of 6
survivor count (dose: 25.0 mg/kg/injection, schedule: Q01DX009 (ip), vehicle: Klucel (hydroxypropylcellulose) (HPC)): 1 of 6
survivor count (dose: 50.0 mg/kg/injection, schedule: Q01DX009 (ip), vehicle: Klucel (hydroxypropylcellulose) (HPC)): 2 of 6
survivor count (dose: 100.0 mg/kg/injection, schedule: Q01DX009 (ip), vehicle: Klucel (hydroxypropylcellulose) (HPC)): 1 of 6

NC(N)=N/N=C(\C=N\N=C(N)N)c1ccc(CCc2ccc(C(/C=N/N=C(N)N)=N\N=C(N)N)cc2)cc1
survivor count (dose: 6.25 mg/kg/injection, schedule: Q04DX003 (ip), vehicle: saline): 2 of 6
survivor count (dose: 12.5 mg/kg/injection, schedule: Q04DX003 (ip), vehicle: saline): 2 of 6
survivor count (dose: 25.0 mg/kg/injection, schedule: Q04DX003 (ip), vehicle: saline): 0 of 6
survivor count (dose: 50.0 mg/kg/injection, schedule: Q04DX003 (ip), vehicle: saline): 1 of 6
survivor count [4]: 0 of 6
survivor count [5]: 0 of 6
survivor count [6]: 0 of 6

COC(=O)C1=NC=NC1=[N+]=[N-]
survivor count (dose: 75.0 mg/kg/injection, schedule: Q01DX001 (ip), vehicle: saline): 0 of 6
survivor count (dose: 150.0 mg/kg/injection, schedule: Q01DX001 (ip), vehicle: saline): 0 of 6
survivor count (dose: 300.0 mg/kg/injection, schedule: Q01DX001 (ip), vehicle: saline): 0 of 6

N#CSCc1ccc(CSC#N)c(Br)c1
survivor count (dose: 150.0 mg/kg/injection, schedule: Q01DX009 (ip), vehicle: saline): 6 of 6
survivor count (dose: 300.0 mg/kg/injection, schedule: Q01DX009 (ip), vehicle: saline): 0 of 6

CCC[CH2][Sn]([I])([CH2]I)[CH2]CCC
survivor count (dose: 25.0 mg/kg/injection, schedule: Q04DX002 (ip), vehicle: saline with Tween-80): 0 of 3
survivor count (dose: 100.0 mg/kg/injection, schedule: Q04DX002 (ip), vehicle: saline with Tween-80): 0 of 3
survivor count (dose: 200.0 mg/kg/injection, schedule: Q04DX002 (ip), vehicle: saline with Tween-80): 0 of 3
survivor count [3]: 0 of 3

O=C(O)c1nsnc1C(=O)O
survivor count [7]: 6 of 6

CC[N+]1(Cc2ccccc2)CC2(CCCCC2)ON2C1CC(C)C2(C)C (centres undefined)
survivor count (dose: 200.0 mg/kg/injection, schedule: Q04DX003 (ip), vehicle: saline with Tween-80): 3 of 6
survivor count [8]: 0 of 6

CCOC(=O)c1cnc(SC)nc1Nc1ccccc1F
survivor count [8]: 6 of 6

S=C(N/N=C/c1ccc(Cl)cc1Cl)Nc1cccc2cccnc12
survivor count (dose: 50.0 mg/kg/injection, schedule: Q01DX001 (ip), vehicle: saline): 4 of 4
survivor count [7]: 4 of 4
survivor count (dose: 200.0 mg/kg/injection, schedule: Q01DX001 (ip), vehicle: saline): 4 of 4
survivor count (dose: 400.0 mg/kg/injection, schedule: Q01DX001 (ip), vehicle: saline): 4 of 4

Nc1ccc(C(=O)O)c(C(=O)O)c1
survivor count [9]: 3 of 6

Cc1cc2c(cc1C)NC(=O)CC(=O)N2
survivor count (dose: 200.0 mg/kg/injection, schedule: Q01DX009 (ip), vehicle: Klucel (hydroxypropylcellulose) (HPC)): 6 of 6
survivor count (dose: 400.0 mg/kg/injection, schedule: Q01DX009 (ip), vehicle: Klucel (hydroxypropylcellulose) (HPC)): 6 of 6

COc1cc(CC2=NCCc3cc(OC)c(OCc4ccccc4)cc32)ccc1OCc1ccccc1
survivor count [9]: 3 of 6

CCCCCCCCCCC(=O)N(CC)CC
survivor count (dose: 400.0 mg/kg/injection, schedule: Q01DX009 (ip), vehicle: carboxymethylcellulose (CMC)): 3 of 3

COc1ccc(OC)c2c(=O)cc[nH]c12
survivor count (dose: 400.0 mg/kg/injection, schedule: Q01DX001 (ip), vehicle: carboxymethylcellulose (CMC)): 2 of 6

CC(N)Cc1ccc2c(c1)OCO2 (centres undefined)
survivor count (dose: 50.0 mg/kg/injection, schedule: Q01DX009 (ip), vehicle: saline): 3 of 6
survivor count (dose: 100.0 mg/kg/injection, schedule: Q01DX009 (ip), vehicle: saline): 3 of 6 (2×)
survivor count [4]: 3 of 6
survivor count [1]: 1 of 6
survivor count [5]: 1 of 4
survivor count [2]: 0 of 6
survivor count [6]: 0 of 4
